Results as given in PubChem BioAssay AID504444 (National Center for Advancing Translational Sciences (NCATS), 2011).
Hit rate of the full screen: of about 360,000 compounds, about 7,500 (2.1%) were called active. The shares of active, inactive and inconclusive entries below differ from those in the screen. Calls follow the shape of the dose curve; as a rule, active = well fitted inhibition curve with a large enough effect; inconclusive = small, poorly fitted or top-dose-only effect, or effect the other way; inactive = flat fitted curve, though single readings scatter. Potencies of inconclusive entries are doubtful fits and often do not repeat.

assay: Nrf2 qHTS screen for inhibitors; conditions: A549 ARE-Fluc reporter, luciferase luminescence, 18-24 h; series mostly up to 46 µM; also: nearly all actives have a fitted effect of over 60% in size
Summary of the method: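 Concentration-response testing used A549 ARE_Fluc cells at 5000 cells/well. Following an 18-24 h compound incubation, viability was read by fluorescence (Ex 405/Em 525) and luciferase output by luminescence.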
Potency is read from the fitted curve at half-maximal effect.

Question: For `COc1ccc(-c2nc3c(C#N)c[nH]n3c2NC2CCCCC2)c(OC)c1`, which Potency is on record?
Answer: Its Potency is inconclusive: 29.1 µM [falling, single point].

Question: Which Potency does the source give for `Cc1ccc(-c2nc(CSCC(=O)N3CCCC3)c(C)o2)cc1` here?
Answer: The Potency was inconclusive: 25.9 µM [falling, single point].

Question: For `Cc1c(CCC(=O)O)c(=O)oc2cc(OCc3cccc(Cl)c3)ccc12`, which Potency is on record?
Answer: Its Potency is inconclusive: 10.3 µM [falling, partial curve, poor fit].

Question: With `Cc1nc2oc3ccccc3c(=O)c2cc1C(=O)O` as the compound, how does the Potency read?
Answer: The Potency was “inactive”.

Question: Which Potency does the source give for `COC(=O)CC(=O)Cc1nc(N)nc(Nc2ccc(C)c(C)c2)n1` here?
Answer: The Potency was inconclusive: 5.17 µM [falling, partial curve, poor fit].

Question: Which Potency does the source give for `Cc1ccc(OCCCC(=O)N2CCOCC2)c(C)c1` here?
Answer: The Potency was inconclusive: 20.6 µM [activator, partial curve].

Question: Which Potency does the source give for `O=C(COc1ncnc2ccccc12)c1ccc(Cl)cc1` here?
Answer: Its Potency is inconclusive: 16.4 µM [activator, single point].

Question: For `COc1ccc(/C=C/C(=O)O/N=C(\N)c2ccccn2)cc1OC`, which Potency is on record?
Answer: Its Potency is inconclusive: 7.31 µM [activator, partial curve].

Question: Which Potency does the source give for `Cc1ccc(/C=C2\OC(=O)c3ccccc32)cc1` here?
Answer: Its Potency is inconclusive: 7.31 µM [activator, partial curve].

Question: Which Potency does the source give for `COc1ccccc1C1c2ccc3ccccc3c2Oc2ncn(CCN(C)C)c(=N)c21` (configuration not stated) here?
Answer: The Potency was “inactive”.

Question: With `c1ccc(CSc2ncccn2)cc1` as the compound, how does the Potency read?
Answer: The Potency was “inactive”.

Question: With `CC(=O)N1CC(C)Sc2ccc(S(=O)(=O)NC3CCCCC3)cc21` (configuration not stated) as the compound, how does the Potency read?
Answer: Its Potency is inconclusive: 29.1 µM [falling, single point].

Question: For `COc1ccccc1Nc1ncnc2sccc12`, which Potency is on record?
Answer: The Potency was inconclusive: 32.6 µM [activator, single point].

Question: Which Potency does the source give for `Cc1ccc(C)c(N2C(=O)c3cc(N4CCOCC4)c([N+](=O)[O-])cc3C2=O)c1` here?
Answer: Its Potency is “inactive”.

Question: Which Potency does the source give for `COc1ccc(Cc2nc3ccccc3n2C)cc1` here?
Answer: The Potency was inconclusive: 4.61 µM [falling, partial curve, poor fit].

Question: For `O=C(NCCN1CCOCC1)c1ccc2c(c1)N(Cc1ccccc1F)C(=O)c1ccccc1S2`, which Potency is on record?
Answer: Its Potency is inconclusive: 11.6 µM [falling, partial curve].

Question: For `COc1ccc(S(=O)(=O)Nc2cccc3cccnc23)c(N)c1`, which Potency is on record?
Answer: The Potency was inconclusive: 29.1 µM [falling, single point].

Question: Which Potency does the source give for `C=CC[C@H](CC(=O)NCCO)C(=O)N[C@H](COC(=O)[C@@H](CC=C)Cc1ccc(F)cc1)Cc1ccccc1` here?
Answer: Its Potency is inconclusive: 20.6 µM [falling, partial curve, poor fit].

Question: Which Potency does the source give for `CNc1ccccc1C(=O)OCC(=O)c1ccccc1` here?
Answer: The Potency was inconclusive: 13 µM [activator, partial curve].

Question: With `CN(C)S(=O)(=O)c1cccc(NC(=O)CN2C(=O)NC(Cc3c[nH]c4ccccc34)C2=O)c1` (configuration not stated) as the compound, how does the Potency read?
Answer: The Potency was inconclusive: 18.4 µM [activator, single point].

Question: For `CNc1nc(N)c(C(=O)Nc2cc(C)on2)s1`, which Potency is on record?
Answer: The Potency was inconclusive: 9.2 µM [activator, partial curve].

Question: With `Cc1c(CCO)c(=O)[nH]n1C(=O)c1c(F)cccc1F` as the compound, how does the Potency read?
Answer: Its Potency is inconclusive: 5.8 µM [activator, full curve].

Question: Which Potency does the source give for `CC(C)(C)c1ccc(C(=O)NC(=S)N2CCOCC2)cc1` here?
Answer: Its Potency is inconclusive: 5.17 µM [activator, partial curve].

Question: For `COc1cccc(C2NC(=O)NC(C)=C2C(=O)Nc2cc(OC)ccc2OC)c1` (configuration not stated), which Potency is on record?
Answer: Its Potency is inconclusive: 8.2 µM [falling, partial curve, poor fit].

Question: With `Cc1nnc(N2C(=O)c3cccc4cccc(c34)C2=O)s1` as the compound, how does the Potency read?
Answer: Its Potency is “inactive”.

Question: With `COc1ccc(S(=O)(=O)N(CC(=O)NCc2ccccn2)c2ccc(Cl)cc2)cc1` as the compound, how does the Potency read?
Answer: The Potency was “inactive”.

Question: Which Potency does the source give for `CCCN(C(=O)c1cc2c(s1)-c1ccccc1SC2)c1ccccc1F` here?
Answer: The Potency was inconclusive: 29.1 µM [falling, single point].

Question: Which Potency does the source give for `CC(CN1CCCCC1)OC(=O)c1ccc2c(c1)OCCO2` (configuration not stated) here?
Answer: The Potency was inconclusive: 23.1 µM [activator, partial curve, poor fit].

Question: For `Cc1ccc2oc(-c3ccc(NC(=O)CC(C)C)cc3)nc2c1`, which Potency is on record?
Answer: Its Potency is inconclusive: 1.3 µM [activator, partial curve].

Question: For `O=C(Nc1cccnc1)c1scc2c1OCCO2`, which Potency is on record?
Answer: The Potency was inconclusive: 25.9 µM [falling, partial curve, poor fit].

Question: Which Potency does the source give for `CC1(c2ccc(Cl)cc2)CC(C)(C)N(C(=O)c2ccccc2)c2ccccc21` (configuration not stated) here?
Answer: The Potency was inconclusive: 23.1 µM [falling, single point].

Question: Which Potency does the source give for `Cc1ccc(CN2CCC(CNc3ncnc4onc(-c5ccc(Cl)cc5)c34)CC2)cc1` here?
Answer: Its Potency is inconclusive: 29.1 µM [activator, single point].

Question: For `CC1Cc2nc(SCC(=O)N3CCN(c4ccccc4)CC3)n(C)c(=O)c2S1` (configuration not stated), which Potency is on record?
Answer: Its Potency is “inactive”.

Question: Which Potency does the source give for `Cc1ccc(OCc2nc3ccccc3n2CC(C)C)cc1` here?
Answer: The Potency was “inactive”.

Question: For `COc1ccc(-c2csc(NC(C)c3nc4cc(C(F)(F)F)ccc4n3CCOCCO)n2)cc1` (configuration not stated), which Potency is on record?
Answer: Its Potency is inconclusive: 32.6 µM [falling, single point].

Question: For `Cc1nn2c(NCc3ccccn3)c3c(nc2c1-c1ccccc1)CCC3`, which Potency is on record?
Answer: The Potency was inconclusive: 29.1 µM [falling, single point].

Question: For `CC(C)(C)OC(=O)N1CCN(C(=O)c2cccnc2Cl)CC1`, which Potency is on record?
Answer: Its Potency is “inactive”.

Question: With `Cn1c2c(c(=O)n(C)c1=O)CN(Cc1ccco1)CN2` as the compound, how does the Potency read?
Answer: Its Potency is inconclusive: 32.6 µM [activator, single point].

Question: For `COc1cc(NC(=O)c2ccc(S(=O)(=O)N(C)c3ccccc3OC)cc2)cc(OC)c1`, which Potency is on record?
Answer: The Potency was inconclusive: 18.4 µM [falling, single point].

Question: For `CC1(c2ccc3c(c2)OCO3)NC(=O)N(CC(=O)Nc2ccccc2[N+](=O)[O-])C1=O` (configuration not stated), which Potency is on record?
Answer: The Potency was inconclusive: 2.06 µM [falling, partial curve, poor fit].

Question: With `Cc1cc(C)nc(SCCC(=O)Nc2cccc3ccccc23)n1` as the compound, how does the Potency read?
Answer: Its Potency is “inactive”.

Question: For `CC(=O)c1cccc(NC(=O)N2CCC(c3nnc(SCC(N)=O)n3C)CC2)c1`, which Potency is on record?
Answer: Its Potency is “inactive”.

Question: With `Cc1cc(C(=O)CSc2nc(N)cc(N)n2)c(C)n1CCc1ccc(F)cc1` as the compound, how does the Potency read?
Answer: Its Potency is active: 14.6 µM.

Question: Which Potency does the source give for `CCN(CC)CCCC(C)n1c2nc(=O)[nH]c(=O)c-2nc2cc(Cl)ccc21` (configuration not stated) here?
Answer: The Potency was active: 20.6 µM.

Question: For `CCOc1ccccc1CNC(=O)Nc1cn(CC(C)C)c(=O)c2ccccc12`, which Potency is on record?
Answer: Its Potency is inconclusive: 16.4 µM [falling, partial curve, poor fit].

Question: Which Potency does the source give for `O=C(NNC(=S)NC(=O)c1cn(-c2ccccc2)nc1-c1ccccc1)c1ccncc1` here?
Answer: The Potency was inconclusive: 23.1 µM [falling, single point].

Question: Which Potency does the source give for `COc1ccc(N=C2S/C(=C\c3ccc(OC(C)C(=O)O)c(OC)c3)C(=O)N2CCc2c[nH]c3ccccc23)cc1` (configuration not stated) here?
Answer: The Potency was “inactive”.

Question: For `O=[N+]([O-])c1ccccc1OCCCn1cnc2ccccc21`, which Potency is on record?
Answer: The Potency was inconclusive: 13 µM [activator, partial curve, poor fit].

Question: For `Fc1cccc(-n2ncc(-c3nnnn3-c3ccccc3)c2C(F)(F)F)c1`, which Potency is on record?
Answer: Its Potency is inconclusive: 18.4 µM [falling, partial curve, poor fit].

Question: Which Potency does the source give for `CN(c1cccc(NC(=O)CN(c2ccc(C34CC5CC(CC(C5)C3)C4)cc2)S(C)(=O)=O)c1)S(C)(=O)=O` here?
Answer: The Potency was active: 7.31 µM.

Question: With `CCc1nnc(NC(=O)C2CCN(c3ncnc4sc(C)c(C)c34)CC2)s1` as the compound, how does the Potency read?
Answer: Its Potency is “inactive”.

Question: For `Cc1ccc(-n2c(O)c(/C=N/n3cnnc3)c3ccccc3c2=O)cc1`, which Potency is on record?
Answer: The Potency was inconclusive: 11.6 µM [falling, partial curve, poor fit].

Question: Which Potency does the source give for `Cc1cc(SCC(=O)N/N=C/c2ccco2)nc2ccccc12` here?
Answer: Its Potency is “inactive”.

Question: With `COc1cc(C(=O)NNC(=S)NC(=O)c2ccccc2C)cc(OC)c1OC` as the compound, how does the Potency read?
Answer: The Potency was inconclusive: 2.91 µM [falling, full curve].

Question: For `CCc1cc(C(=O)Nc2c(C)nn(Cc3ccc(C)cc3)c2C)no1`, which Potency is on record?
Answer: Its Potency is inconclusive: 23.1 µM [falling, single point].

Question: Which Potency does the source give for `CC(C)c1nc(SCC(=O)N2CCCCCC2)c2c(=O)n(C)c(=O)n(C)c2n1` here?
Answer: Its Potency is inconclusive: 20.6 µM [falling, partial curve, poor fit].

Question: With `O=C(Cc1c(F)c(F)c(F)c(F)c1F)Nc1nc(-c2ccccc2)cs1` as the compound, how does the Potency read?
Answer: The Potency was inconclusive: 16.4 µM [falling, single point].

Question: With `CCOCCCNC(=O)c1ccc2c(c1)N=C(CC)c1cc(Br)ccc1S2` as the compound, how does the Potency read?
Answer: The Potency was inconclusive: 4.11 µM [activator, single point].

Question: Which Potency does the source give for `CCOC(=O)c1noc2ncnc(N3CCN(c4ccccc4OC)CC3)c12` here?
Answer: Its Potency is “inactive”.

Question: For `CCCCn1c(-c2nonc2N)nc2ccccc21`, which Potency is on record?
Answer: The Potency was active: 14.6 µM.

Question: Which Potency does the source give for `CCN(CC)C(=O)Cn1cc(S(=O)(=O)CC(=O)Nc2ccccc2F)c2ccccc21` here?
Answer: Its Potency is inconclusive: 4.11 µM [activator, single point].

Question: Which Potency does the source give for `COc1ccc(C(=O)N2CCN(Cc3cn[nH]c3-c3ccc(OC)cc3F)CC2)cc1` here?
Answer: The Potency was inconclusive: 2.31 µM [activator, partial curve].

Question: For `Cc1ccc2c(c1)[nH]c1c(N3CCN(Cc4ccccc4)CC3)ncnc12`, which Potency is on record?
Answer: Its Potency is active: 8.2 µM.

Question: With `COc1ccccc1/C=C/C(=O)NC(=S)N(C)C1CCCCC1` as the compound, how does the Potency read?
Answer: Its Potency is inconclusive: 20.6 µM [falling, partial curve, poor fit].

Question: With `COc1cc(/C=N/NC(=O)c2ccc(O)cc2)ccc1Oc1ccc([N+](=O)[O-])cn1` as the compound, how does the Potency read?
Answer: Its Potency is inconclusive: 18.4 µM [falling, single point].

Question: Which Potency does the source give for `COCC(C)n1c(C)cc(C(=O)CSc2nnc(-c3ccco3)o2)c1C` (configuration not stated) here?
Answer: The Potency was inconclusive: 10.3 µM [falling, partial curve, poor fit].

Question: For `CN1CCc2c(sc(/N=C/c3cccs3)c2C(N)=O)C1`, which Potency is on record?
Answer: Its Potency is inconclusive: 3.66 µM [activator, partial curve, poor fit].
